Data on one sequence can be found in publication PMC6728143.

Amino acid sequences for entries named in this document (tags omitted). A change or cut given only in a name is not applied to a line headed by its entry.
UniProt P05455: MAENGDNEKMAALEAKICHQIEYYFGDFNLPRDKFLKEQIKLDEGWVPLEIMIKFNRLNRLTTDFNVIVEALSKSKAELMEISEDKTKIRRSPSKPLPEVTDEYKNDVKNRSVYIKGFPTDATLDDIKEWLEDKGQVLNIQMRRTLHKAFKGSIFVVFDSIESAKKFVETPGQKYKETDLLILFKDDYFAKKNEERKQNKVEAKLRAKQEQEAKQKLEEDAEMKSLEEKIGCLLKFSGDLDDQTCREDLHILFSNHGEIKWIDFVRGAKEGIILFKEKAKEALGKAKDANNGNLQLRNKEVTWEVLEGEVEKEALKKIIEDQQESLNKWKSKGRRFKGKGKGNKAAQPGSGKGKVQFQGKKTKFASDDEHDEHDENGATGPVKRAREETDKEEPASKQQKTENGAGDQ

The exact form of at least one protein or probe is not confirmed. At least one verdict rests on a figure or table, not on a statement of the authors.

This data set has as its target Lupus La protein (La) (Homo sapiens) (UniProt P05455). In words: EMSA. Particulars: positive control for binding per legend; EMSA: 1 nM RNA, La 250 pM-2 uM; 25 mM Tris pH 8, 100 mM KCl, 1.5 mM MgCl2, 0.2 mM EGTA, 0.05% NP-40, 50 ug/ml heparin; 30 C 30 min, then ice 10 min; 6% gel at 4 C; recombinant protein; protein details: N-terminal 6xHis; label: 5' IRDye800CW.

As to “UUUUUUUUUUUUUUUUUUUUUU [22 nt poly-uridine]”, the binding result is on record as “binds”.
